Test results: patent publication US12225904B2, “Phenylpyrazole compound and method for controlling plant disease” (SUMITOMO CHEMICAL COMPANY, LIMITED, priority 2019, dated 2025)
Some of these results come from one statement about several compounds together. For at least one compound, name, drawing or mass did not settle the structure.

Experiments:
[1] = test system: Septoria leaf blotch (Septoria tritici), QoI resistant strain (cytochrome b 129th phenylalanine mutated to leucine); experiment: Test Example 4: control test against Septoria leaf blotch, growth in titer plate; conditions: diluted with dimethylsulfoxide to 150 ppm, 1 μL + 150 μL potato dextrose broth with conidia; 18° C., 5 days
[2] = test system: Septoria leaf blotch (Septoria tritici), QoI resistant strain (cytochrome b 129th phenylalanine mutated to leucine); experiment: Test Example 3: control test against Septoria leaf blotch, growth in titer plate; conditions: diluted with dimethyl sulfoxide to 1500 ppm, 1 μL + 150 μL potato dextrose broth with conidia; 18° C., 5 days
[3] = test system: tomato leaf mold (Cladosporium fulvum), QoI resistant strain (cytochrome b 129th phenylalanine mutated to leucine); experiment: Test Example 1: control test against tomato leaf mold, growth in titer plate; conditions: diluted with dimethyl sulfoxide to 1500 ppm, 1 μL + 150 μL potato dextrose broth with conidia; 18° C., 5 days

Row | SMILES | growth of Septoria leaf blotch in treated groups compared to the growth in an untreated group (absorbance at 550 nm) [1] [%] | growth of Septoria leaf blotch in treated groups compared to the growth in an untreated group (absorbance at 550 nm) [2] [%] | growth of tomato leaf mold in treated groups compared to the growth in an untreated group (absorbance at 550 nm) [3] [%]
1 | CCS(=O)(=O)n1ccc(-c2ccc3ccccc3c2)n1 [compound 101] | ≤ 50 |  | 
2 | CCCS(=O)(=O)n1ccc(-c2cc(F)c(Br)c(F)c2)n1 [compound 70] |  | ≤ 50 | ≤ 50
3 | CCS(=O)(=O)n1ccc(-c2ccc(Cl)cc2F)n1 [compound 110] |  | ≤ 50 | 
4 | CN(C)S(=O)(=O)n1ccc(-c2ccc(Cl)cc2)n1 [compound 30] | ≤ 50 |  | 
5 | CCCS(=O)(=O)n1ccc(-c2cc(F)c(C(F)(F)F)c(F)c2)n1 [compound 85] |  | ≤ 50 | 
6 | O=S(=O)(C1CC1)n1ccc(-c2ccc(Br)c(F)c2)n1 [compound 81] |  | ≤ 50 | 
7 | CS(=O)(=O)n1ccc(-c2cc(F)c(Br)c(F)c2)n1 [compound 77] |  | ≤ 50 | 
8 | CCS(=O)(=O)n1ccc(-c2ccc(Cl)c(F)c2)n1 [compound 47] |  | ≤ 50 | ≤ 50
9 | CS(=O)(=O)n1ccc(-c2ccc(Cl)cc2)n1 [compound 2] |  | ≤ 50 | 
10 | CCS(=O)(=O)n1ccc(-c2ccc(C)c(F)c2)n1 [compound 48] |  | ≤ 50 | ≤ 50
11 | CCS(=O)(=O)n1ccc(-c2ccc(Cl)c([N+](=O)[O-])c2)n1 [compound 36] | ≤ 50 |  | 
12 | C#CCOc1cccc(-c2ccn(S(=O)(=O)CCC)n2)c1 [compound 169] |  | ≤ 50 | 
13 | CCS(=O)(=O)n1ccc(-c2ccc(C(F)(F)F)c(F)c2)n1 [compound 46] |  | ≤ 50 | ≤ 50
14 | CCS(=O)(=O)n1ccc(-c2ccc3c(c2)CCC3)n1 [compound 105] | ≤ 50 |  | 
15 | CCS(=O)(=O)n1ccc(-c2cccc(OC(F)(F)F)c2)n1 [compound 131] |  | ≤ 50 | 
16 | CCS(=O)(=O)n1ccc(-c2ccc(Br)c([N+](=O)[O-])c2)n1 [compound 53] |  | ≤ 50 | ≤ 50
17 | CCS(=O)(=O)n1ccc(-c2ccc(F)c(Cl)c2)n1 [compound 45] |  | ≤ 50 | ≤ 50
18 | CCS(=O)(=O)n1ccc(-c2ccc(Cl)cc2OC)n1 [compound 113] |  | ≤ 50 | 
19 | CCS(=O)(=O)n1ccc(-c2cc(F)c(C)c(F)c2)n1 [compound 89] |  | ≤ 50 | 

Row | SMILES | growth of Septoria leaf blotch in treated groups compared to the growth in an untreated group (absorbance at 550 nm) [1] [%] | growth of Septoria leaf blotch in treated groups compared to the growth in an untreated group (absorbance at 550 nm) [2] [%] | growth of tomato leaf mold in treated groups compared to the growth in an untreated group (absorbance at 550 nm) [3] [%]
20 | CCCS(=O)(=O)n1ccc(-c2ccc(F)c(Br)c2)n1 [compound 61] |  | ≤ 50 | ≤ 50
21 | CCS(=O)(=O)n1ccc(-c2ccc(F)c(F)c2F)n1 [compound 50] |  | ≤ 50 | 
22 | CCCS(=O)(=O)n1ccc(-c2cc(F)c(Cl)c(F)c2)n1 [compound 87] |  | ≤ 50 | 
23 | CCS(=O)(=O)n1ccc(-c2cc(F)c(F)cc2F)n1 [compound 114] |  | ≤ 50 | 
24 | CN(C)S(=O)(=O)n1ccc(-c2ccc(Br)c(F)c2)n1 [compound 58] |  | ≤ 50 | ≤ 50
25 | CC(C)CS(=O)(=O)n1ccc(-c2ccc(Br)c(F)c2)n1 [compound 93] |  | ≤ 50 | 
26 | CCS(=O)(=O)n1ccc(-c2ccc(Br)c(C)c2)n1 [compound 52] |  | ≤ 50 | ≤ 50
27 | CCS(=O)(=O)n1ccc(-c2ccc(F)c(C)c2)n1 [compound 49] |  | ≤ 50 | ≤ 50
28 | CCCS(=O)(=O)n1ccc(-c2ccc(Cl)c(F)c2)n1 [compound 62] |  | ≤ 50 | ≤ 50
29 | CCS(=O)(=O)n1ccc(-c2ccc(Br)c(Cl)c2)n1 [compound 55] |  | ≤ 50 | ≤ 50
30 | CCS(=O)(=O)n1ccc(-c2ccc(Cl)cc2)n1 [compound 6] |  | ≤ 50 | 
31 | CCS(=O)(=O)n1ccc(-c2cc(F)c(Br)c(F)c2)n1 [compound 69] |  | ≤ 50 | ≤ 50
32 | CCCS(=O)(=O)n1ccc(-c2ccc(C)c(F)c2)n1 [compound 63] |  | ≤ 50 | 
33 | CCS(=O)(=O)n1ccc(-c2cc(F)c(I)c(F)c2)n1 [compound 94] |  | ≤ 50 | 
34 | CCS(=O)(=O)n1ccc(-c2ccc3c(c2)CCO3)n1 [compound 106] |  | ≤ 50 | 
35 | CCCS(=O)(=O)n1ccc(-c2cc(F)c(I)c(F)c2)n1 [compound 95] |  | ≤ 50 | 
36 | CCS(=O)(=O)n1ccc(-c2ccc3nonc3c2)n1 [compound 107] |  | ≤ 50 | 
37 | CCS(=O)(=O)n1ccc(-c2cc(F)c(C(F)(F)F)c(F)c2)n1 [compound 84] |  | ≤ 50 | 
38 | C=CCOc1cccc(-c2ccn(S(=O)(=O)CCC)n2)c1 [compound 170] |  | ≤ 50 | 

Row | SMILES | growth of Septoria leaf blotch in treated groups compared to the growth in an untreated group (absorbance at 550 nm) [1] [%] | growth of Septoria leaf blotch in treated groups compared to the growth in an untreated group (absorbance at 550 nm) [2] [%] | growth of tomato leaf mold in treated groups compared to the growth in an untreated group (absorbance at 550 nm) [3] [%]
39 | CCS(=O)(=O)n1ccc(-c2ccc(F)c(F)c2)n1 [compound 21] | ≤ 50 |  | 
40 | CCS(=O)(=O)n1ccc(-c2cc(F)c(Cl)c(F)c2)n1 [compound 86] |  | ≤ 50 | 
41 | CCS(=O)(=O)n1ccc(-c2ccc(C(F)F)cc2)n1 [compound 111] |  | ≤ 50 | 
42 | CCS(=O)(=O)n1ccc(-c2ccc(Br)c(F)c2)n1 [compound 51] |  | ≤ 50 | ≤ 50
43 | CCS(=O)(=O)n1ccc(-c2ccc(Cl)c(Cl)c2)n1 [compound 11] | ≤ 50 |  | 
44 | CS(=O)(=O)n1ccc(-c2ccc(Br)c(F)c2)n1 [compound 78] |  | ≤ 50 | 
45 | CN(C)S(=O)(=O)n1ccc(-c2ccc3c(c2)OC(F)(F)O3)n1 [compound 109] |  | ≤ 50 | 
46 | CCS(=O)(=O)n1ccc(-c2ccc(C(C)C)cc2)n1 [compound 23] | ≤ 50 |  | 
47 | CCN(CC)S(=O)(=O)n1ccc(-c2ccc(Br)c(F)c2)n1 [compound 83] |  | ≤ 50 | 
48 | CCCS(=O)(=O)n1ccc(-c2ccc(C(F)(F)F)c(F)c2)n1 [compound 88] |  | ≤ 50 | 
49 | CCS(=O)(=O)n1ccc(-c2ccc(Cl)c(Cl)c2Cl)n1 [compound 19] | ≤ 50 |  | 
50 | CCS(=O)(=O)n1ccc(-c2ccc(I)cc2)n1 [compound 26] | ≤ 50 |  | 
51 | CC(C)S(=O)(=O)n1ccc(-c2cc(F)c(Br)c(F)c2)n1 [compound 117] |  | ≤ 50 | 
52 | CCc1ccc(-c2ccn(S(=O)(=O)CC)n2)cc1 [compound 24] | ≤ 50 |  | 
53 | CCCCc1ccc(-c2ccn(S(=O)(=O)CC)n2)cc1 [compound 25] | ≤ 50 |  | 
54 | CCS(=O)(=O)n1ccc(-c2ccc(F)c(Br)c2)n1 [compound 60] |  | ≤ 50 | 
55 | CCCS(=O)(=O)n1ccc(-c2cc(F)c(C)c(F)c2)n1 [compound 90] |  | ≤ 50 | 
56 | O=S(=O)(CC(F)(F)F)n1ccc(-c2ccc(Br)c(F)c2)n1 [compound 92] |  | ≤ 50 | 
